The filed quantity is “Percent Effect” (%).
The controls that fix the scale are not given in the record; negative values are as filed.
Compounds were drawn at random from those tested, without regard to their results.
A dash means the value is not listed here; it may have been measured.

Protein sequences, listed by entry. Tags and fused reporters are not part of them. Residues count along the entry.
UniProt A4I591, 1-473: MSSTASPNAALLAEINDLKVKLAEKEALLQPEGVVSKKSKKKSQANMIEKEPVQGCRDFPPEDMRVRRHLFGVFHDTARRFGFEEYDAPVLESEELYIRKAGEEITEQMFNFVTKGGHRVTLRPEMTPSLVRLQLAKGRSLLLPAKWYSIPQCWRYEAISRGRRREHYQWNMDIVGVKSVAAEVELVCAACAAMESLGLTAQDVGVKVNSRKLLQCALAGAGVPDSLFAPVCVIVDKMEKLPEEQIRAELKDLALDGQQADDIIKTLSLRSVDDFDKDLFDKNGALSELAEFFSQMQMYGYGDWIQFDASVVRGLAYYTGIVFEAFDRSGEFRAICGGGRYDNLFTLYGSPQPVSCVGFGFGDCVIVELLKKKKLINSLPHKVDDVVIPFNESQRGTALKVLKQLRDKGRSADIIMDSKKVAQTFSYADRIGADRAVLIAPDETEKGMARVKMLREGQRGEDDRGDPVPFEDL

A: 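Assay of Toxoplasma gondii numbers, read through their beta-galactosidase reporter with a colour substrate. Concentration: 10 µM. The record gives no direction; the compounds picked for IC50 retests had high values, so higher reads as fewer parasites. Size under these conditions: about 67,000 compounds, about 260 of them at 50% or above in at least one test.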
B: 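Histidine-tRNA ligase, Leishmania infantum (UniProt A4I591). Enzyme assay of histidyl-tRNA synthetase; the read-out is not stated. Tested at 30 µM. Higher reads as stronger inhibition (inferred: compounds with an IC50 in retests scored well above the rest). The assay is labelled LdHisRS but filed under L. infantum. About 69,000 compounds were tested under these conditions; 0.6% (about 410) showed 50% or more at least once.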

| # | compound | A | B |
|---|---|---|---|
| 1 | `CNc1snc(C)c1C(=O)NC(C)CC(=O)c1cccs1` (stereo unspecified) | 0.9901 | -2.381 |
| 2 | `O=C(c1ccccn1)N1CCn2cnc(COCC3CC3)c2C1` | - | -39.81 |
| 3 | `O=c1cc(Cn2ccnc2)nc2n1CCCN(Cc1ccncc1)C2` | -3.931 | 12.82 |
| 4 | `Cc1cc(CN(C)C(=O)CN2CCCC2=O)no1` | 2.563 | 14.29 |
| 5 | `COc1ccc(CC2(CO)CCN(c3cc(C#N)ccn3)CC2)cc1` | 9.827 | 3.333 |
| 6 | `O=C(O)C(F)(F)F.O=C(O)C(F)(F)F.O=C(O)C(F)(F)F.[H][C@@]12CCCO[C@]1([H])[C@H](N(C)Cc1ccco1)CN(Cc1cccnc1)C2` | 7.432 | - |
| 7 | `COCCN1CCC2(CC1)CC(OCC1CC1)c1ccc(C)cc12` (stereo unspecified) | 6.659 | 13.27 |
| 8 | `Cc1ccc(C(=O)N2CCC3(CC2)c2ccccc2[C@@H](N)[C@@H]3O)c(=O)[nH]1` | 2.357 | 13.21 |
| 9 | `O=C(CN1CCCC(O)C1)NC(=O)NCc1cccs1` (stereo unspecified) | 0.4525 | 11.43 |
| 10 | `Cl.O=C(O)CN1CCC(C(F)(F)F)CC1` | -5.148 | - |
| 11 | `c1cc(CCNc2ccc(CC3CCNC3)cn2)ccn1` (stereo unspecified) | -10.56 | 9.929 |
| 12 | `O=C(O)C(F)(F)F.[H][C@@]12COC[C@H](C(=O)N3CCOCC3)[C@]1([H])CN(c1ncc(F)cn1)C2` | -3.989 | - |
| 13 | `CC(C)Oc1cccc(CN(C)C(=O)Cc2ccon2)c1` | -4.234 | -4.464 |
| 14 | `N#Cc1ncn(CCC(=O)Nc2cc(Cl)ccc2Cl)n1` | -34.91 | 20.21 |
| 15 | `CC(C)c1ccc(NC(=O)c2ncc(C(N)=O)cc2Cl)cc1` | 5.992 | 0 |
| 16 | `O=C1N[C@@H]2CCN(C(=O)C3CCCC3)[C@@H]2C(=O)N1c1ccc(F)cc1` | - | 13.89 |
| 17 | `CCC(C)(NCc1cccc(NC(C)=O)c1)c1nc(C)cs1` (stereo unspecified) | -4.116 | 14.75 |
| 18 | `CN(C)c1ncc(-c2cc(C(=O)O)n(CC3CC3)c2)cn1` | 0.6331 | 9.615 |
| 19 | `Cc1noc(CCCC(=O)NCC(c2ccco2)N2CCCC2)n1` (stereo unspecified) | 8.29 | 6 |
| 20 | `Cn1ncc2c(=O)[nH]c(CN3CCCC3c3ccccc3Cl)nc21` (stereo unspecified) | -16.05 | 20 |
| 21 | `CC(C)Oc1cc(N2CC[C@@H](N3CCOCC3)[C@H](O)C2)nc(N)n1` | 2.529 | 12.12 |
| 22 | `O=C(Nc1cccnc1)[C@H]1CN(Cc2cccs2)C[C@H]2OCC[C@@H]12` | - | 6 |
| 23 | `O=C(c1ccccn1)N1CC(S(=O)(=O)c2ccc(Cl)cc2)C1` | 8.848 | 10.87 |
| 24 | `CCN1CCN(C2CCN(Cc3ccc(Cl)s3)CC2)C1=O` | 6.785 | 14.29 |
| 25 | `Cc1cccc(N2CCOCC3(C2)CN(c2ccoc2)C(=O)CO3)n1.O=C(O)C(F)(F)F` (stereo unspecified) | 6.433 | - |
| 26 | `Cc1nc(CN2CCC3(CCCN(Cc4ccoc4)C3)C2=O)cs1` (stereo unspecified) | - | 18.06 |
| 27 | `COc1ccc(C(CO)NC(=O)Nc2cccc(F)c2)cc1` (stereo unspecified) | -11.71 | 14.52 |
| 28 | `O=C(O)C(F)(F)F.O=C(O)C(F)(F)F.O=C(O)C(F)(F)F.[H][C@@]12OCCN(Cc3cccc(C)n3)[C@@]1([H])CC[C@H]2Oc1ccccn1` | 8.169 | - |
| 29 | `CCc1nccn1C1CCCN(C(=O)CCCc2ccccn2)C1` (stereo unspecified) | 10.32 | 17.09 |
| 30 | `CCN(CC)C(=O)C1CCN(c2ccc(Cl)cc2C#N)CC1` | 12.2 | 8.602 |
| 31 | `c1cnc(N2C[C@H]3CCN(Cc4ccncc4)C[C@H]3C2)nc1` | - | 21.78 |
| 32 | `Cc1nn(C)c(C)c1CC(C)NC(=O)NCc1ccn(C(C)C)n1` (stereo unspecified) | -3.162 | 8.036 |
| 33 | `Cn1cc(C2COC3(CCN(C(=O)c4ccn(C)n4)CC3)C2)cn1` (stereo unspecified) | -0.1428 | 26 |
| 34 | `CCc1nc(C)c(C(=O)N2CCNCC2C(=O)NCc2ccncc2)o1` (stereo unspecified) | 1.087 | 15.38 |
| 35 | `Cn1cccc1C1CCCN1Cc1noc(C(C)(C)C)n1` (stereo unspecified) | 2.572 | 18.07 |
| 36 | `CCOC(=O)[C@@H]1[C@@H](O)C(=O)N(C)C12CCN(C(=O)c1ccco1)CC2` | -10.27 | 16.49 |
| 37 | `COCC(=O)Nc1cnn(COc2ccc(F)cc2Cl)c1` | 5.838 | 19.47 |
| 38 | `CCOCC1c2c(ncn2C)CCN1C(=O)c1cnc(C)cn1.O=C(O)C(F)(F)F` (stereo unspecified) | -10.04 | - |
| 39 | `COCC(=O)N1CCc2cccc(S(=O)(=O)N3CCOCC3)c2C1` | -2.811 | 6.452 |
| 40 | `O=C(O)c1ccnc(-c2ccnc(COc3ccc(Cl)cc3)n2)c1` | 14.33 | 17.6 |
| 41 | `Cc1cc(NC2CCN(Cc3ccccn3)CC2)n2nc(C)c(C)c2n1` | -5.774 | 13.7 |
| 42 | `Cc1noc(C(C)N(C)CC(=O)NCCc2ccc(Cl)cc2)n1` (stereo unspecified) | 12.91 | -2.041 |
| 43 | `CCN1CCC2(CCN(Cc3ccc(OC)cc3)CC2)C1=O.O=C(O)C(F)(F)F` | -7.877 | - |
| 44 | `Cc1c(CNC(=O)C2CCCN2C(=O)C2CC2)oc2ccccc12` (stereo unspecified) | 5.877 | 20 |
| 45 | `COc1ccc(C[C@H]2CN(C(=O)c3ccc(C)nc3)CC[C@@H]2OC)cc1` | - | 23.08 |
| 46 | `CN(C)C(=O)N1CCN(C(=O)CCc2ccccc2)[C@H]2CS(=O)(=O)C[C@H]21` | - | 17.31 |
| 47 | `Cc1n[nH]c(=O)c2c(NC(=O)CN3CCOC(C)C3)oc(C)c12` (stereo unspecified) | -1.128 | -2.128 |
| 48 | `Cc1ccc(N2CCCN(C(=O)C3(C#N)CCCCC3)CC2)nn1` | -6.634 | 18.4 |
| 49 | `O=C(NCCC1CN(Cc2c[nH]cn2)CCO1)c1ccccc1O` (stereo unspecified) | 1.323 | -6.667 |
| 50 | `CN(C)Cc1nnc2n1CCN(Cc1cccnc1)C2` | -2.873 | 5.714 |
| 51 | `Cc1ccc(CN2CC(C(=O)NC(C)C)C3(CCOCC3)C2)s1.O=C(O)C(F)(F)F` (stereo unspecified) | -1.748 | - |
| 52 | `N#Cc1ccc(OCC(=O)N2CCCC(n3cccn3)C2)cc1` (stereo unspecified) | 0.4632 | 8.264 |
| 53 | `CC(C)c1nc(COc2cccc3c2NC(=O)CO3)cs1` | -1.299 | 16.88 |
| 54 | `CN(Cc1ccc(F)cc1F)Cc1cc2c(cc1Br)OCCO2` | -4.618 | 30.67 |
| 55 | `CC(C)n1cc(CN2CCCN(C(=O)C3CCCN3C)CC2)cn1` (stereo unspecified) | -1.18 | 5.357 |
| 56 | `Cc1ccc(S(=O)(=O)N2CCC(Oc3ccccn3)CC2)c(C)c1` | 21.49 | 5.217 |
| 57 | `Cc1cc(N2Cc3cnc(CC(C)C)nc3C2)nc(N)n1` | 8.21 | 5.714 |
| 58 | `O=C(O)C(F)(F)F.O=C(O)C(F)(F)F.c1cn2c(n1)CN(C1CCOCC1)CC(CN1CCCC1)C2` (stereo unspecified) | 12.3 | - |
| 59 | `CCCn1c(C)c(CC(=O)NC(C)(C)CO)c2c1CC(C)(C)CC2=O` | 9.517 | 22.35 |
| 60 | `CCn1c(CN(C)C(=O)c2ccc(N(C)C)nc2)nc2ccccc21` | 6.963 | 22.81 |
| 61 | `CN1CC[C@H]2CN(C(=O)COCc3nc4cc(F)ccc4[nH]3)C[C@H]21` | - | -31.52 |
| 62 | `CC(C)Oc1ccc(CC2=N[C@](C)(CO)CO2)cc1` | -1.06 | -5.618 |
| 63 | `Cc1ccc(C(=O)NCCCN(C(C)C)S(C)(=O)=O)c(=O)[nH]1` | 3.06 | 15.15 |
| 64 | `FC(F)(F)c1cc(-c2cccs2)nc(N2CCN3CCCC3C2)n1` (stereo unspecified) | 10.46 | 2.381 |
| 65 | `COc1ccc(F)cc1CSCC(=O)N(C)C1CC1` | 4.603 | -4.225 |
| 66 | `O=C(c1ccc(F)cc1F)N1C[C@@H](O)[C@H](N2CCOCC2)C1` | -7.561 | 17.14 |
| 67 | `Cc1nnc(C(C)Nc2cccc(COCCOC(C)C)c2)o1` (stereo unspecified) | 0.6215 | 4.396 |
| 68 | `CCn1c(C)nnc1CN(C)C1CCN(CCOc2ccccc2)C1` (stereo unspecified) | -4.922 | 13.27 |
| 69 | `Cc1cccc(CNC2CC(=O)N(CCc3cccc(Cl)c3)C2)n1` (stereo unspecified) | 1.727 | 9.574 |
| 70 | `Cc1ccc(NC(=O)Cc2cnc3n(C)c(=O)[nH]c(=O)n23)cc1` | 7.846 | -6.897 |
| 71 | `c1csc(-c2noc(C3CNC3)n2)c1` | - | 6.667 |
| 72 | `CCCN(CCC)C(=O)c1sc(C)nc1C` | -9.779 | 8.219 |
| 73 | `O=C(C1=CCCC1)N1CCC[C@]2(C[C@@H](OCc3ccncc3)CO2)C1` | - | 16.98 |
| 74 | `Cc1ccc(NC(=O)NCCc2ccncc2C)c(N(C)C)n1` | -30.94 | 7.895 |
| 75 | `Cc1noc(C)c1CCC(=O)NCCc1cccs1` | 15.44 | 10.43 |
| 76 | `Cc1ncsc1C(=O)N1CCC(O)(CN2CCc3ccccc3C2)C1` (stereo unspecified) | 4.223 | -4.348 |
| 77 | `O=C(C1CCOCC1)N1CC[C@H]2[C@H]1CCN2c1nncs1` | - | 22.41 |
| 78 | `Cc1nc(CN2CCN(C(=O)c3c(C)noc3C)CC2)cs1` | 10.55 | 15.09 |
| 79 | `OCC1CCCN1c1cc(N2CCC(OC3CCCC3)CC2)ncn1` (stereo unspecified) | -2.776 | 29.33 |

Once more, the final 10:

* Cc1ccc(NC(=O)Cc2cnc3n(C)c(=O)[nH]c(=O)n23)cc1 : A: 7.846%; B: -6.897%
* c1csc(-c2noc(C3CNC3)n2)c1 : B: 6.667%
* CCCN(CCC)C(=O)c1sc(C)nc1C : A: -9.779%; B: 8.219%
* O=C(C1=CCCC1)N1CCC[C@]2(C[C@@H](OCc3ccncc3)CO2)C1 : B: 16.98%
* Cc1ccc(NC(=O)NCCc2ccncc2C)c(N(C)C)n1 : A: -30.94%; B: 7.895%
* Cc1noc(C)c1CCC(=O)NCCc1cccs1 : A: 15.44%; B: 10.43%
* Cc1ncsc1C(=O)N1CCC(O)(CN2CCc3ccccc3C2)C1 (stereo unspecified) : A: 4.223%; B: -4.348%
* O=C(C1CCOCC1)N1CC[C@H]2[C@H]1CCN2c1nncs1 : B: 22.41%
* Cc1nc(CN2CCN(C(=O)c3c(C)noc3C)CC2)cs1 : A: 10.55%; B: 15.09%
* OCC1CCCN1c1cc(N2CCC(OC3CCCC3)CC2)ncn1 (stereo unspecified) : A: -2.776%; B: 29.33%

The values are deposited in ChEMBL (CHEMBL3988442, “University of Dundee, Small-Polar-MMV Screening Library” (2021)).